Here are results for 3 molecules from publication PMC13291236.

Protein sequences, listed by entry. Tags and fused reporters are not part of them. Residues count along the entry.
UniProt P56480, residues 47-529: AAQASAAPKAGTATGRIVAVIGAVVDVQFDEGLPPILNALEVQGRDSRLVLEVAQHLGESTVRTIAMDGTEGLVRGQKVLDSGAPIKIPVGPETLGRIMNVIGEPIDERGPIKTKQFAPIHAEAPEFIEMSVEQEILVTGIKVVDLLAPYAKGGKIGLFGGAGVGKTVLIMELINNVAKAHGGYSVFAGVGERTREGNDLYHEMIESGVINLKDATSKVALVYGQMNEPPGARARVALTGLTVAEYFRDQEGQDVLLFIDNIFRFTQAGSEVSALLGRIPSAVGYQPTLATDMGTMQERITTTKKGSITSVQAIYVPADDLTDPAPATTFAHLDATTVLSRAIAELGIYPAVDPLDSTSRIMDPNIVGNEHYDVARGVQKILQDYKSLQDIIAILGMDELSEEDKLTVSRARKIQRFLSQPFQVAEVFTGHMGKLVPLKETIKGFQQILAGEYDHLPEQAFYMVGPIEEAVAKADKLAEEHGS
UniProt Q03265, residues 44-553: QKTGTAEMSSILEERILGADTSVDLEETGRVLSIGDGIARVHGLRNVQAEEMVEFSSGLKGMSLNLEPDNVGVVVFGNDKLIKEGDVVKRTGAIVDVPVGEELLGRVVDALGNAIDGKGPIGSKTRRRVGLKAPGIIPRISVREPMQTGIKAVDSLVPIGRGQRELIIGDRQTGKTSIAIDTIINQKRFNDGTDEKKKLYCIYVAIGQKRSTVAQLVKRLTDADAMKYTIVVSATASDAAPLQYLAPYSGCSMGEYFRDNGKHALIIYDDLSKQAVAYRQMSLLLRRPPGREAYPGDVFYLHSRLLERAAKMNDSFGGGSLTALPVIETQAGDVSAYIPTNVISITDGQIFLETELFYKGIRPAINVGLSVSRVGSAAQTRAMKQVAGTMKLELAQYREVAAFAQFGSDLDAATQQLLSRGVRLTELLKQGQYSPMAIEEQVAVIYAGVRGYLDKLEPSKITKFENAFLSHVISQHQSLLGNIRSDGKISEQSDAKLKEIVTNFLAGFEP

What all share (assay): cross-linking; in-solution XL-MS: intact heart mitochondria (500 µg) of wild-type and Lrpprc knockout mice, 0.5 mM DSSO, 45 min, 15 °C; LC-MS/MS, XlinkX; n = 3 biological replicates
Assay [1] concerns the target ATP synthase F1 subunit β (ATPB) (mouse (endogenous in heart mitochondria)) (UniProt P56480).
In assay [2] the target is T1, ATPase inhibitory factor 1 (ATIF1) (mouse (endogenous in heart mitochondria)) (UniProt O35143).
T1 sequence: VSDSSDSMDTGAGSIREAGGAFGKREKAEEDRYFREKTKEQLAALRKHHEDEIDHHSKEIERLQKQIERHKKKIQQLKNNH

The target in assay [3] is ATP synthase F1 subunit α (ATPA) (mouse (endogenous in heart mitochondria)) (UniProt Q03265).
In assay [4] the target is T2, ATP synthase subunit ATPG (mouse (endogenous in heart mitochondria)) (UniProt Q91VR2).
T2 sequence: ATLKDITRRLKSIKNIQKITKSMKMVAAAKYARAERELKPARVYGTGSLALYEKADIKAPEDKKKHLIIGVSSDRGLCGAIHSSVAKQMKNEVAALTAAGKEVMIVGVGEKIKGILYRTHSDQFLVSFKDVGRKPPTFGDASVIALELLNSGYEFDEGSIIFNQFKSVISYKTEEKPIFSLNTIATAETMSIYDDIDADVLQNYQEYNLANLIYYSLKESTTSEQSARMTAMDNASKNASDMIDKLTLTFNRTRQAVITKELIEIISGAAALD

Results are given in words; binding and its absence hold for the method and conditions named. Binding seen in cells or lysates may run through a third protein. Some binding calls cover weakened binding; strength is not graded here.

B1: ATPase inhibitory factor 1 (ATIF1) (protein, UniProt O35143 26-106)
chain: T1 sequence
Turning to B1, the binding entry in assay [1], in assay [2], in assay [3] and in assay [4] was “binds” throughout.

B2: citrate synthase (CISY) (enzyme, UniProt Q9CZU6 28-464)
chain: ASSTNLKDVLSNLIPKEQARIKTFKQQHGKTVVGQITVDMMYGGMRGMKGLVYETSVLDPDEGIRFRGYSIPECQKMLPKAKGGEEPLPEGLFWLLVTGQMPTEEQVSWLSREWAKRAALPSHVVTMLDNFPTNLHPMSQLSAAITALNSESNFARAYAEGMNRAKYWELIYEDCMDLIAKLPCVAAKIYRNLYREGSSIGAIDSRLDWSHNFTNMLGYTDPQFTELMRLYLTIHSDHEGGNVSAHTSHLVGSALSDPYLSFAAAMNGLAGPLHGLANQEVLVWLTQLQKEVGKDVSDEKLRDYIWNTLNSGRVVPGYGHAVLRKTDPRYSCQREFALKHLPKDPMFKLVAQLYKIVPNILLEQGKAKNPWPNVDAHSGVLLQYYGMTEMNYYTVLFGVSRALGVLAQLIWSRALGFPLERPKSMSTDGLMKFVDSK
B2: the binding entry in assay [2] is “binds”.

B3: malate dehydrogenase (MDHM) (enzyme, UniProt P08249 25-338)
chain: AKVAVLGASGGIGQPLSLLLKNSPLVSRLTLYDIAHTPGVAADLSHIETRANVKGYLGPEQLPDCLKGCDVVVIPAGVPRKPGMTRDDLFNTNATIVATLTAACAQHCPEAMVCIIANPVNSTIPITAEVFKKHGVYNPNKIFGVTTLDIVRANTFVAELKGLDPARVNVPVIGGHAGKTIIPLISQCTPKVDFPQDQLATLTGRIQEAGTEVVKAKAGAGSATLSMAYAGARFVFSLVDAMNGKEGVVECSFVQSKETECTYFSTPLLLGKKGLEKNLGIGKITPFEEKMIAEAIPELKASIKKGEDFVKNMK
Take B3: the binding entry in assay [1], in assay [2] and in assay [3] was “binds” in each case.
